Source: the supplement of paper PMC7877785
± gives the uncertainty stated by the source. The uncertainty is large for many entries.

Assay: self-splicing fitness, log relative to wild type (ln ratio); higher = more splicing; Tetrahymena group I intron in knt gene, E. coli kanamycin selection, DiMSum; sequences stand for … in CUCUCU…GGAGGGAAAAGUUAUCAGGCAUGCACCUGGUAGCUAGUCUUUAAACCAAUAGAUUGCAUCGGUUUAAAAGGCAAGACCGUCAAAUUGCGGGAAAGGGGUCAACAGCCGUUCAGUACCAAGUCUCAGGGGAAACUUUGAGAUGGCCUUGCAAAGGGUAUGGUAAUAAGCUGACGGACAUGGUCCUAACCACGCAGCCAAGUCCUAAGUCAACAGAUCUUCUGUUGAUAUGGAUGCAGUUCACAGACUAAAUGUCGGUCGGGGAAGAUGUAUUCUUCUCAUAAGAUAUAGUCGGACCUCUCCUUAAUGGGAGCUAGCGGAUGAAGUGAUGCAACACUGGAGCCGCUGGGAACUAAUUUGUAUGCGAAAGUAUAUUGAUUAGUUUUGGAGUACUCGUGGUCG
Outline: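 Fitness was computed with DiMSum as the error-weighted combination of replicate fold changes, kanamycin versus none, each normalised to wild type. The library randomised all eight intron nucleotides of the P1ex region, with the intron placed in the knt kanamycin-resistance gene on pET-22b(+) in E. coli BL21(DE3). Six replicate transformations were grown overnight at 37°C or 30°C on LB agar with or without 25 μg/mL kanamycin, plus 100 μg/mL carbenicillin, 50 μM IPTG and 0.2% rhamnose. Pooled colonies were amplicon-sequenced on an Illumina HiSeq 2500.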

Sequence | self-splicing fitness (ln) (30 °C) | self-splicing fitness (ln) (37 °C)
AUAUAGCAAUAUUACGGGGC | -3.4 ± 0.43 | -2.48 ± 0.32
AAAAAGCAAUAUUACGGCUU | -0.00557 ± 0.049 | 0.259 ± 0.066
CGGGAGCAAUAUUACGAACC | -2.09 ± 1.4 | 0.807 ± 0.64
CUCGAGCAAUAUUACGAUUC |  | -3.03 ± 0.61
GGAUAGCAAUAUUACGUGGC |  | -2.32 ± 0.54
AGUCAGCAAUAUUACGUGGG | -4.29 ± 0.21 | -2.44 ± 0.14
CAAUAGCAAUAUUACGAACC |  | -0.234 ± 1.4
GAUGAGCAAUAUUACGAUUC |  | -1.88 ± 1.2
GAGCAGCAAUAUUACGCUAC | -3.69 ± 0.6 | 
CUUAAGCAAUAUUACGCGAC | -1.83 ± 0.16 | -0.508 ± 0.23
CGAUAGCAAUAUUACGGGCU | -4.87 ± 0.59 | 
UUGCAGCAAUAUUACGCCAC | -2.96 ± 0.68 | -1.1 ± 0.5
GUCGAGCAAUAUUACGACGG | -3.93 ± 0.59 | 
CCGGAGCAAUAUUACGGUCC |  | -0.527 ± 0.56
UGCUAGCAAUAUUACGGAUA | -1.44 ± 0.11 | -1.1 ± 0.13
GCUCAGCAAUAUUACGCGGG | -3.41 ± 0.2 | -2.78 ± 0.2
GUCGAGCAAUAUUACGCUGC | -3.07 ± 1.1 | 
CGCAAGCAAUAUUACGUAAU | -3.89 ± 0.2 | -2.14 ± 0.17
CGCCAGCAAUAUUACGCUCU | -1.6 ± 0.081 | -1.06 ± 0.097
CAAUAGCAAUAUUACGACCA | -2.36 ± 0.78 | 

A section of the results above:
Sequence | self-splicing fitness (ln) (30 °C) | self-splicing fitness (ln) (37 °C)
CAAUAGCAAUAUUACGAACC |  | -0.234 ± 1.4
GAUGAGCAAUAUUACGAUUC |  | -1.88 ± 1.2
GAGCAGCAAUAUUACGCUAC | -3.69 ± 0.6 | 

Next part.

Sequence | self-splicing fitness (ln) (30 °C) | self-splicing fitness (ln) (37 °C)
UCCCAGCAAUAUUACGUACC | -4.56 ± 0.51 | 
GCAUAGCAAUAUUACGGUGC |  | -2.95 ± 0.74
UCCAAGCAAUAUUACGUUCC | -4.58 ± 1 | 
UAGGAGCAAUAUUACGCUUC |  | -3.22 ± 0.52
UAUCAGCAAUAUUACGGGCC | -4.45 ± 0.51 | 
AUGGAGCAAUAUUACGCCUC |  | -1.21 ± 0.68
GGUAAGCAAUAUUACGUUUG | -4.17 ± 0.72 | 
CAAAAGCAAUAUUACGCCCC |  | -1.99 ± 0.67
AGAGAGCAAUAUUACGUUUU |  | -4.72 ± 1
GAGCAGCAAUAUUACGGAUC | -0.51 ± 0.12 | -0.724 ± 0.12
GACAAGCAAUAUUACGAUGU | -1.66 ± 0.067 | -1.65 ± 0.11
CGUGAGCAAUAUUACGAGGC |  | -1.33 ± 1.2
AUCAAGCAAUAUUACGUACC | -0.82 ± 0.12 | -0.953 ± 0.17
UUUCAGCAAUAUUACGAAAU | -4.6 ± 0.52 | 
UCCGAGCAAUAUUACGACUA | -2.51 ± 0.28 | -2.21 ± 0.27
UGAGAGCAAUAUUACGAGCA | -1.05 ± 0.67 | 
AAUAAGCAAUAUUACGGACG | -0.851 ± 0.15 | -0.397 ± 0.15
UUCGAGCAAUAUUACGACAC |  | -2.36 ± 0.54
UAGCAGCAAUAUUACGUACG | -1.2 ± 0.072 | -0.47 ± 0.1
CACGAGCAAUAUUACGCGCC | -2.92 ± 0.56 | 

Sequence | self-splicing fitness (ln) (30 °C) | self-splicing fitness (ln) (37 °C)
AGGGAGCAAUAUUACGCCAA | -3.47 ± 0.62 | 
UGCGAGCAAUAUUACGGAAG | -4.67 ± 0.51 | 
GUUGAGCAAUAUUACGGUUG | -3.56 ± 0.35 | -1.38 ± 0.38
UGAGAGCAAUAUUACGUCAU |  | -2.07 ± 0.79
AUGGAGCAAUAUUACGGCGA | -3.21 ± 0.74 | 
UCUAAGCAAUAUUACGGCCU |  | -2.9 ± 0.53
CGGUAGCAAUAUUACGGCAC | -2.11 ± 0.26 | -1.99 ± 0.36
CUGUAGCAAUAUUACGGAAA |  | -3.3 ± 0.52
GUGCAGCAAUAUUACGGAAA | -3.4 ± 0.53 | 
CCGGAGCAAUAUUACGGAUC |  | -2.39 ± 1.1
CGAGAGCAAUAUUACGGCAA | -2.62 ± 0.76 | 
GCCCAGCAAUAUUACGUGGA | -0.734 ± 0.063 | 0.199 ± 0.076
GUUGAGCAAUAUUACGAAAA |  | -0.778 ± 1.4
CCCAAGCAAUAUUACGACCC | -3.66 ± 1 | -2.8 ± 0.53
UGGAAGCAAUAUUACGCUUC | -2.48 ± 1.1 | -2.07 ± 0.65
CUUUAGCAAUAUUACGGCUC | -2.71 ± 0.56 | 
CCUUAGCAAUAUUACGAAAA | -2.2 ± 0.84 | -3.08 ± 0.74
GCGGAGCAAUAUUACGGCUU | -2.62 ± 0.62 | 
UGGUAGCAAUAUUACGCCAU | -2.44 ± 0.54 | 
AGGGAGCAAUAUUACGCCUU |  | -2.9 ± 0.53
